Literature values as cited in patent US20240002520A1, “TREATMENT OF CASTLEMAN DISEASE” (THE TRUSTEES OF THE UNIVERSITY OF PENNSYLVANIA, priority 2020, published 2024).
For at least one compound, name, drawing or mass did not settle the structure.

Tests used:
[1] = system: acute graft-versus-host disease and hemophagocytic lymphohistiocytosis; conditions: cited from earlier work
[2] = system: iMCD; conditions: cited from earlier work

**Q.** Which “activity in hyperinflammatory, cytokine-driven diseases” value [1] does the source give for `N#CC[C@H](C1CCCC1)n1cc(-c2ncnc3[nH]ccc23)cn1` [ruxolitinib] here?
**A.** demonstrated activity

**Q.** For `CO[C@H]1C[C@@H]2CC[C@@H](C)[C@@](O)(O2)C(=O)C(=O)N2CCCC[C@H]2C(=O)O[C@H]([C@H](C)C[C@@H]2CC[C@@H](O)[C@H](OC)C2)CC(=O)[C@H](C)/C=C(\C)[C@@H](O)[C@@H](OC)C(=O)[C@H](C)C[C@H](C)/C=C/C=C/C=C/1C` [sirolimus], which “reported activity in iMCD” value ([2]; literature case reports) is on record?
**A.** potential activity

**Q.** And the “treatment of siltuximab non-responders” value ([2]; mTOR inhibitor, prior studies)?
**A.** shown promise
